Experiment [1] concerns the target β-catenin (Ctnnb1), mouse (mouse) (UniProt Q02248). The experiment can be described thus: co-IP for β-catenin and Western blot in B-ALL cells with biallelic deletion of Ikzf3 (FIG. 12A).
The target is the same in experiment [2]. The experiment can be described thus: co-IP for β-catenin and Western blot in Ikzf3-deleted (clone 2F9) Ctnnb1^ex3fl/+ B-ALL cells. (In general: Immunoblotting shows a protein as a band on a membrane.)
Experiment [3] shares this target. The experiment can be described thus: co-IP for β-catenin and Western blot in Ikzf1-deleted (clone 1C7) Ctnnb1^ex3fl/+ B-ALL cells.
Experiment [4] has the same target. The experiment can be described thus: co-IP for β-catenin and Western blot in B-ALL cells with biallelic deletion of Ikzf1 (FIG. 12A).
Experiment [5] shares this target. Kind of experiment: co-IP with anti-β-catenin antibody and Western blot, Ikzf1/Ikzf3-deleted B-ALL cells.
For experiment [6] the target is unchanged. The experiment can be described thus: co-IP with anti-β-catenin antibody and Western blot, β-catenin accumulation, Ikzf1/Ikzf3-deleted B-ALL cells.
Experiment [7] has the same target. Kind of experiment: co-IP with anti-β-catenin antibody and Western blot, β-catenin accumulation, B-ALL cells with and without Ikzf1/Ikzf3 deletion.

Protein sequences, listed by entry. Tags and fused reporters are not part of them. Residues count along the entry.
UniProt Q02248, residues 2-781: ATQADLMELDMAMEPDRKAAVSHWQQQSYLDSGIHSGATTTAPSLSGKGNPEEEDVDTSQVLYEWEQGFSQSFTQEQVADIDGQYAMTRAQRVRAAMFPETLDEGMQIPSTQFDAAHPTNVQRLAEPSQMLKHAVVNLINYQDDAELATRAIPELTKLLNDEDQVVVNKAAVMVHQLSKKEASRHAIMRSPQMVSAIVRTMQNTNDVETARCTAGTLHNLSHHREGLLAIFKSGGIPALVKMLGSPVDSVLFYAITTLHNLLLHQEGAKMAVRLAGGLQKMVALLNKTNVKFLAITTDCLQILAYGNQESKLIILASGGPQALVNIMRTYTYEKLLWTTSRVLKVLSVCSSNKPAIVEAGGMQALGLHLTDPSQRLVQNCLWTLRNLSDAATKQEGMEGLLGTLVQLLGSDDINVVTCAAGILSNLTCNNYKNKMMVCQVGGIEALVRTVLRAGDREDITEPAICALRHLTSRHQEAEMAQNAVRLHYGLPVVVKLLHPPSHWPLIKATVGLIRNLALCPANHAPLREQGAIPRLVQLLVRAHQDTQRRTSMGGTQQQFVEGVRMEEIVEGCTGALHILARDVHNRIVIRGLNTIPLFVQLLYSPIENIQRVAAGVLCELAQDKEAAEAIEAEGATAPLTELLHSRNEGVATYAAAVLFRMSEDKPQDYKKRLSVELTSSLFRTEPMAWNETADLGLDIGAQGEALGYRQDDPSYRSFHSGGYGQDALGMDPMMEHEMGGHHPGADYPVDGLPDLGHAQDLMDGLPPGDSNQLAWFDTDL
UniProt Q03267: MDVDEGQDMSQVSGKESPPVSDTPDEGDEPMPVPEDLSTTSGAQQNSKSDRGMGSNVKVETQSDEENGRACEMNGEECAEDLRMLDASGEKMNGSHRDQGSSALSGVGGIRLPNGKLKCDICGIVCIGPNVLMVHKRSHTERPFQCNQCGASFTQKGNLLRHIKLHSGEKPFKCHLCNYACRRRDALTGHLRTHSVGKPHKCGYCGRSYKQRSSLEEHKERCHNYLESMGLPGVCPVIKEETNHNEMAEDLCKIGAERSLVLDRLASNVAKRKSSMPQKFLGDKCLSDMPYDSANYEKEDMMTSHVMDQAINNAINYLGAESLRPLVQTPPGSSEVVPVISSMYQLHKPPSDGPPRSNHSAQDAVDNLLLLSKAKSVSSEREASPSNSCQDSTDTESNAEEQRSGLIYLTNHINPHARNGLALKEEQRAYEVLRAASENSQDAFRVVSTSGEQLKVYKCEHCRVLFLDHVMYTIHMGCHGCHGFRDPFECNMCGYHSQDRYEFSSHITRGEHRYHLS
UniProt O08900: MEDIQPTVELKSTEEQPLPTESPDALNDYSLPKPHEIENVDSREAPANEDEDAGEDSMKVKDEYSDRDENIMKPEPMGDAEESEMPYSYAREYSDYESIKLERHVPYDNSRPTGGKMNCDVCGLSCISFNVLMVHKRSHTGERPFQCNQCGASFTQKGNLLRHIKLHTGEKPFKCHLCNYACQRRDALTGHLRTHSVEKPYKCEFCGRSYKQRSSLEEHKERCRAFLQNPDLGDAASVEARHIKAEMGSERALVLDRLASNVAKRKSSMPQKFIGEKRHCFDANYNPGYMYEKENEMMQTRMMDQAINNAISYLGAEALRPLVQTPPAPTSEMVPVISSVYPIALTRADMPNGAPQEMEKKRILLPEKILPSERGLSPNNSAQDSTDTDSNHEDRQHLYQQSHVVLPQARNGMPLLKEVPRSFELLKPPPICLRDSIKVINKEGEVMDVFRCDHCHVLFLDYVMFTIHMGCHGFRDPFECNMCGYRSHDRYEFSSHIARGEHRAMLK
UniProt Q00417: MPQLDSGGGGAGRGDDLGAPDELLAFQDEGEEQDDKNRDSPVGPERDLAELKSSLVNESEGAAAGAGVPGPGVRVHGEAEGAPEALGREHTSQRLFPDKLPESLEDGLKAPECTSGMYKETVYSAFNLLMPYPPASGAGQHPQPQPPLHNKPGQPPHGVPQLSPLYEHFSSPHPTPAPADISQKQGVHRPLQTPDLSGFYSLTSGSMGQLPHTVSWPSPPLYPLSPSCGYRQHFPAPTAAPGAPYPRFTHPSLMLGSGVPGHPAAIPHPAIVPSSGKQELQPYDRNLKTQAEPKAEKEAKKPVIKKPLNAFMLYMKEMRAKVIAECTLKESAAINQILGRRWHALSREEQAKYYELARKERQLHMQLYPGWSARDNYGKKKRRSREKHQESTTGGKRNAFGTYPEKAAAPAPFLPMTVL
UniProt Q924A0: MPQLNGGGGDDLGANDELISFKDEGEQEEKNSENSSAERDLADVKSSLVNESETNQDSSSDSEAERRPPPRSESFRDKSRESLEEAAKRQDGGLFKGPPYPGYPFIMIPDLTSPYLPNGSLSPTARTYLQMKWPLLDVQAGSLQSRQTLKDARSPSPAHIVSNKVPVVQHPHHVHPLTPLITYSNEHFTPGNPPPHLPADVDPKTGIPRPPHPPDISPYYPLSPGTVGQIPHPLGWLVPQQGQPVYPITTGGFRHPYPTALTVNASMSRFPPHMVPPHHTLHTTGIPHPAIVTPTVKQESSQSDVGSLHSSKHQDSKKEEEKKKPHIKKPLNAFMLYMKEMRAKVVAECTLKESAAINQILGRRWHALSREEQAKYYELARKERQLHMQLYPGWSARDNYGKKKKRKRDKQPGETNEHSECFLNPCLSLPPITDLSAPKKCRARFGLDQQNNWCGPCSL

These are yes or no findings as the source states them, for the method shown. Binding seen in cells or lysates may run through a third protein. Some entries that bind do so weakly or less than the wild type.

For “Ikaros (Ikzf1), mouse (from UniProt Q03267 1-517)”, the binding entry in experiment [1] and in experiment [2] was “binds” in each case.

“Aiolos (Ikzf3), mouse (from UniProt O08900 1-507)”: the binding entry in experiment [3] and in experiment [4] was “binds” each time.

For Tcf7, mouse (from UniProt Q00417 1-419), the binding result in experiment [5] and in experiment [6] was “binds” throughout.

“Tcf7l2, mouse (from UniProt Q924A0 1-459)”: the binding result in experiment [5] and in experiment [7] was “binds” in each case.

B1: Tcf7l1, mouse (protein, UniProt Q9Z1J1 1-584, looked up)
chain: MPQLGGGRGGAGGGGGGSGAGATSGGDDLGANDELIPFQDEGGEEQEPSSDTASAQRDLDEVKSSLVNESENQSSSSDSEAERRPQPARDAFQKPRDYFAEVRRPQDGAFFKGGAYPGYPFLMIPDLSSPYLSNGPLSPGGARTYLQMKWPLLDVPSSATVKDTRSPSPAHLSNKVPVVQHPHHMHPLTPLITYSNDHFSPASPPTHLSPEIDPKTGIPRPPHPSELSPYYPLSPGAVGQIPHPLGWLVPQQGQPMYSLPPGGFRHPYPALAMNASMSSLVSSRFPHMVAPAHPGLPTSGIPHPAIVSPIVKQEPAAPSLSPAVSAKSPVTVKKEEEKKPHVKKPLNAFMLYMKEMRAKVVAECTLKESAAINQILGRKWHNLSREEQAKYYELARKERQLHAQLYPTWSARDNYGKKKKRKREKQLSQTQSQQQIQEAEGALASKSKKPCIQYLPPEKPCDSPASSHGSALDSPATPSAALASPAAPAATHSEQAQPLSLTTKPEARAQLALHSAAFLSAKAAASNSSQMGSQPPLLSRPLPLGSMPAALLTSPPTFPATLHAHQALPVLQAQPLSLVTKSAH
Regarding B1, the binding result in experiment [5] and in experiment [7] was “binds” throughout.

(Values after patent US20260240865A1, “HARNESSING IKZF:BETA-CATENIN COMPLEXES IN THE TREATMENT OF LYMPHOCYTE ASSOCIATED DISEASES OR CONDITIONS” (Yale University, priority 2022, published 2026).)
